From paper PMC8274477
No constants are given. Whether binding was seen depends on the method and setting. Some binding calls cover weakened binding; strength is not graded here.

Amino acid sequences for entries named in this document (tags omitted).
UniProt Q96AZ6: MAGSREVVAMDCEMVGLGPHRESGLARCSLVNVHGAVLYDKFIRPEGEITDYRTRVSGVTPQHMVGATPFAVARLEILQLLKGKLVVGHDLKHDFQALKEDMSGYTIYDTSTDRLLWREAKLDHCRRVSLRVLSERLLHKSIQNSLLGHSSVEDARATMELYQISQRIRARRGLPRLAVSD
UniProt Q9C0E8: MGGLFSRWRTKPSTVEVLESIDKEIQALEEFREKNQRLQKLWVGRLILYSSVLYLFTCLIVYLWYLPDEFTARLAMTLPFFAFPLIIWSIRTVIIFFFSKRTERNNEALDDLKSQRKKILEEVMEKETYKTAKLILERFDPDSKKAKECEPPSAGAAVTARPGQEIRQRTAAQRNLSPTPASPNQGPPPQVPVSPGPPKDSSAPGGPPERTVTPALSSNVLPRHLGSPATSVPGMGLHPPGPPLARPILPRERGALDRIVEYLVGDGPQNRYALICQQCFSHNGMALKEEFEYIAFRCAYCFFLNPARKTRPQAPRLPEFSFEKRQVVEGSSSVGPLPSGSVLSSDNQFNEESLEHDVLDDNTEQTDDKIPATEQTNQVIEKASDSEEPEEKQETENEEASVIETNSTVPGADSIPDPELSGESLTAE
UniProt Q8IU81: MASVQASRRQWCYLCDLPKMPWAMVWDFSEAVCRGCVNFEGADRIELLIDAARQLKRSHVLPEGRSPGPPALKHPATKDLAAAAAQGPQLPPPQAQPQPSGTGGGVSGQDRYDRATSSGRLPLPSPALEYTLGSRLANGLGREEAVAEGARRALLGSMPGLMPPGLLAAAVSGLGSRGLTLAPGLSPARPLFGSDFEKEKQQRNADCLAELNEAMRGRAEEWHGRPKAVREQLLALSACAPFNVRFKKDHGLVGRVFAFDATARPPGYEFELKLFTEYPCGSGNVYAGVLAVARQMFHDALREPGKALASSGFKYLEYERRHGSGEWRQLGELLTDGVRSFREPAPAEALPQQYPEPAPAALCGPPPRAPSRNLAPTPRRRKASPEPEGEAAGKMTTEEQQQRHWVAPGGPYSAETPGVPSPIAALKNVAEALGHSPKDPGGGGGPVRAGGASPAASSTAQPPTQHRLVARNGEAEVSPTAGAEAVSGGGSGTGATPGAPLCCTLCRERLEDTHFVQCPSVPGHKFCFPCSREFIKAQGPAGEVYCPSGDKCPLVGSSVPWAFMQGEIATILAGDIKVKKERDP
UniProt Q96DH6: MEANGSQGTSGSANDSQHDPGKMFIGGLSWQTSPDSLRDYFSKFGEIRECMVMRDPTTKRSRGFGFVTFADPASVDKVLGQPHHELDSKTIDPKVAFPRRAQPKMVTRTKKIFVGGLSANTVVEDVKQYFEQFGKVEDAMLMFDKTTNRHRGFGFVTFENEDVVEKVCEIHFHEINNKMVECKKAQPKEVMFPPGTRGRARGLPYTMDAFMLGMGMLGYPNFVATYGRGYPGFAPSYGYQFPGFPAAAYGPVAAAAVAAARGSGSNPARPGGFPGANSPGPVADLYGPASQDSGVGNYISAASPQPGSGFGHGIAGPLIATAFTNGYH

Tests used:
Test in all cases: peptide or protein array; HuProt human proteome microarray; 5 ug/5 ml biotin-labelled LUBAC or OTULIN in solution, 1 h at room temperature; Cy5-streptavidin, scanned at 635 nm; BSA as negative control; hits: Z-score >= 3 and I_(Mean_Ratio) >= 1.4; both purified
[1] = biological target: T1, SRRT (human) (UniProt Q9BXP5)
T1 sequence: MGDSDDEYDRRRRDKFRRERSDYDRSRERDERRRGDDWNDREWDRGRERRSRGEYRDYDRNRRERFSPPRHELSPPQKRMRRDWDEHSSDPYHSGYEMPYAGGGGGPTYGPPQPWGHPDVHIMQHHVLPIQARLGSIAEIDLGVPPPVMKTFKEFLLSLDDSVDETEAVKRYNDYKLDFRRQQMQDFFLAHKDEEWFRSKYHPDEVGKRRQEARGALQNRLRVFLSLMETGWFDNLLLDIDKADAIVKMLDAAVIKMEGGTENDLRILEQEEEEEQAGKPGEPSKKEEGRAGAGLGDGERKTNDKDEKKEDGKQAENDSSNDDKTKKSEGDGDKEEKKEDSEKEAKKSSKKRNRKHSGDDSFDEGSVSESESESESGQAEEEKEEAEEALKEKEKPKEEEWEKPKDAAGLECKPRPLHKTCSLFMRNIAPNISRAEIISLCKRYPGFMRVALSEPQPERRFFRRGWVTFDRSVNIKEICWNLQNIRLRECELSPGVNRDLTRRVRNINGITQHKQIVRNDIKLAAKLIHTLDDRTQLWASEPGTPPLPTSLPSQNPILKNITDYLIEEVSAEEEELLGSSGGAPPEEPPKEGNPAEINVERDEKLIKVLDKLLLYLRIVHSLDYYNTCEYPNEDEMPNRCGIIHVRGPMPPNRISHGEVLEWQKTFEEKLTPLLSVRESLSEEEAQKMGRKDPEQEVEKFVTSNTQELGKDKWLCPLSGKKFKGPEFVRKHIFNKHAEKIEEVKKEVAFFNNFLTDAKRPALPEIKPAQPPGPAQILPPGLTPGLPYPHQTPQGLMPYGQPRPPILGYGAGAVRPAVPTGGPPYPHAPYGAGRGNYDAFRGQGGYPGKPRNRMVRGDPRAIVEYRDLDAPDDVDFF

[2] = biological target: ISG20 (human) (UniProt Q96AZ6)
[3] = biological target: T2, FAM49B (human) (UniProt Q9NUQ9)
T2 sequence: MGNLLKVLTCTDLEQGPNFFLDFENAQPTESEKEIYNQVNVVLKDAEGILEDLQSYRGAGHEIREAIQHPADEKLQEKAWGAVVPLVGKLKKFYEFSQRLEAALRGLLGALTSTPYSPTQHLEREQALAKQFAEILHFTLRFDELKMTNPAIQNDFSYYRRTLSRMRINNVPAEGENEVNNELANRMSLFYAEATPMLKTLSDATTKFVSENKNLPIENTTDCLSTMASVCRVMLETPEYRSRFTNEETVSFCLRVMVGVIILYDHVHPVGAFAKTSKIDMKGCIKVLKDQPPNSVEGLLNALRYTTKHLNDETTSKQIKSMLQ

[4] = biological target: LNP (human) (UniProt Q9C0E8)
[5] = biological target: T3, C11orf1 (human) (UniProt Q9H5F2)
T3 sequence: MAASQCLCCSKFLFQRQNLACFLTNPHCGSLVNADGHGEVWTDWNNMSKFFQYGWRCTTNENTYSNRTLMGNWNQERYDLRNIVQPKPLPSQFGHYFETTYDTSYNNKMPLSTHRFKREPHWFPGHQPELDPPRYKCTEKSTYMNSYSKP

[6] = biological target: IRF2BP1 (human) (UniProt Q8IU81)
[7] = biological target: T4, SPRR4 (human) (UniProt Q96PI1)
T4 sequence: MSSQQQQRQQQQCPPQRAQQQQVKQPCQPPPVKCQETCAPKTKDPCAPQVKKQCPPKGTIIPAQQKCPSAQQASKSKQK

[8] = biological target: MSI2 (human) (UniProt Q96DH6)

binding [1]: binds
binding [2]: binds
binding [3]: binds
binding [4]: binds
binding [5]: binds
binding [6]: binds
binding [7]: binds
binding [8]: binds
Substance: linear ubiquitin chain assembly complex (LUBAC), purified as HIS-tagged HOIP with the subunit HOIL-1, biotin-labelled (from UniProt Q96EP0 1-1072; Q9BYM8 1-510)
